Measurements published in doi:10.1101/2021.12.15.472744.
These are yes or no findings as the source states them, for the method shown. For part of these data: In cells and extracts the contact can be indirect. Some results given as binding are weak or reduced against the parent protein; the word gives no strength. Sequences can lack the tags named with a protein.

B1: VC-tagged Atg11 (protein, UniProt Q12527 1-1178)
chain: MADADEYSTAPTQQEITPLQTTATIINAISGECITTNVDFFVSLDKFKQFIARKWKIPPDQLLILLPYGNKLKPSMFKELLINRSFTLNDFYVYDRRLFSLVSKPTPTNLLTSKDSNPMNSPNSNDLTETLEYLIKNSHISQYQGSDTIMIKPMPSPLEDADVDLSRLNYHSVTSLLTTNLGWLSALEIDVHYFKSLIPDIIAHIKRIFDGLTVCSQYLKLYCFDVESLYNSNVQFLNQLVDNGMTSKWEKCFNDTLSKLTALEGDSLQKFINIESLLENEKSVKILNHSINGKLNKIKREIDENASFRDIITVNIDRLRQMFTPNESKFELEDQMAESFEVLVSEMRTRSRNVLDKEEEEFNSQEFLKSMNVMLEKDKKESVKTLFTISQALYSQIGELIDLKKSLQKHAVAILGNIAFTQMEILGIKRLLLNECNKDLELYKKYEVEFAQVEDLPLIYGLYLIEKYRRLSWFQQILSFISNFNQDLELFKQNELRTRNKWVKNFGSIATVFCEDLLSSSDFKRLNEYHSHTSPPNEDEEDENENSIANYRQDLVKVSQAIDNYMTQIKETDVSEPIIDLLSKTLFETKRFHIIYSNFKNNNNNSSNGNSISPEGSIALKSDDVVKGYKTRIKKLESLLHEFQYSDIGHWPQGVLNTHLKPFRGSATSINKKKFLGASVLLEPANISEVNIDSVSQANNHQIQELESNVDDLLHQLQLLKEENNRKSMQISEMGKKISDLEVEKTAYRETLTNLNQELARLTNEEQSHRTEIFTLNASFKKQLNDIISQDNEKIEKLTGDYDDVSKSRERLQMDLDESNKKHEQEVNLLKADIERLGKQIVTSEKSYAETNSSSMEKGEKFETIPLAEDPGRENQISAYTQTLQDRIFDIISTNIFILENIGLLLTFDNNNNIQIRRVKGLKKGTAQSNILDESTQMLDAHDNSLIKSPVFQKLKDEYELIKSVANGSEKDTQQSIFLGNITQLYDNKLYEVAVIRRFKDIETLAKKLTKENKIKRTLLERFQREKVTLRNFQIGDLALFLPTRENVNSVGSMSSSTSSLSSSFSSVDLSTPPPLDAMSIQSSPSVIHSNVINQASISGRDKNKLMRPWAAFTAFEESTRYFLKDEKGLTKGKEWFVGRIVTLEHFVADSPSNNPFRLPKGSVWFQVTAVVVSYQGV
B2: Atg11 (yeast two-hybrid fusion) (protein, UniProt Q12527 1-1178)
chain: B1 chain

What was measured:
[1] = biological target: T1, VN-tagged Spc72 (S. cerevisiae) (UniProt P39723); assay: split reporter
T1 sequence: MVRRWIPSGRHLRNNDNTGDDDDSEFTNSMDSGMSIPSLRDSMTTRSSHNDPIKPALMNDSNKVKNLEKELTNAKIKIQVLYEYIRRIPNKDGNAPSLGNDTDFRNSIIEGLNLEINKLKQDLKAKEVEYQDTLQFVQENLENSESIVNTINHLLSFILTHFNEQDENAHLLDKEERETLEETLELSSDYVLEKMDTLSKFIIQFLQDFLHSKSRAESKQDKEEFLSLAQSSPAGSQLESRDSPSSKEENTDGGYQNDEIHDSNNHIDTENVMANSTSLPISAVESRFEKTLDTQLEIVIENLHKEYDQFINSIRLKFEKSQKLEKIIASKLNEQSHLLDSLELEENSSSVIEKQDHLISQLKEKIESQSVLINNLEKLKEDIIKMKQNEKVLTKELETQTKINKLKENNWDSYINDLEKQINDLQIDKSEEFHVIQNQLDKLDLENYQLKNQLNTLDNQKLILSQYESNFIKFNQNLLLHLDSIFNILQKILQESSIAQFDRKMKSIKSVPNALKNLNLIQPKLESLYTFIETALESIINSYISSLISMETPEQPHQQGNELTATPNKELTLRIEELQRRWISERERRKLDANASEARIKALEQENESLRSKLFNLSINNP

[2] = biological target: T2, Spc72 (yeast two-hybrid fusion) (S. cerevisiae) (UniProt P39723); assay: two-hybrid
T2 sequence: T1 sequence

[3] = biological target: T3, Cnm67 (yeast two-hybrid fusion) (S. cerevisiae) (UniProt P53865); assay: two-hybrid
T3 sequence: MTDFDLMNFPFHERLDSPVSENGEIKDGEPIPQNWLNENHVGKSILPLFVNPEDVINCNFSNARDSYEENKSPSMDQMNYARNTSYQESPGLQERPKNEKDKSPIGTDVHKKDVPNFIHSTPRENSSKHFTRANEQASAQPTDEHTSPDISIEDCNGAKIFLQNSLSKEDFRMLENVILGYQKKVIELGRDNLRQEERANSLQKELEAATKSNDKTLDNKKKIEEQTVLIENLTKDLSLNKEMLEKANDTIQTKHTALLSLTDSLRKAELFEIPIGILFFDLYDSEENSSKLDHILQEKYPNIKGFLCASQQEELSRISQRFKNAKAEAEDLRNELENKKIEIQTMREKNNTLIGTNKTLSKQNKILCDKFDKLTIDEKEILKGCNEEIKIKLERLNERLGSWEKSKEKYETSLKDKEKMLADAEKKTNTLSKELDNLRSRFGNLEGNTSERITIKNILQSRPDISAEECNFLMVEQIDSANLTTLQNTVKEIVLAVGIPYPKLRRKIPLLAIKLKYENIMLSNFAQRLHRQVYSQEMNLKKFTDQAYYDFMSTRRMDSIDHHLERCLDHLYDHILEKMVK

Binder | binding [1] | binding [2] | binding [3]
B1 | binds | – | –
B2 | – | binds | no binding
